The whole screen tested about 300,000 compounds, of which about 5,400 (1.8%) were called active. Inconclusive means that the source gave no clear call. Such entries were picked first, then a sample of the others. Calls come from the whole dose curve; tested in HEK293 cells. Where the call is inconclusive, the potency comes from a doubtful curve fit.
Experiment: qHTS for inhibitors of binding or entry into cells for Marburg Virus
Conditions: Marburg virus pseudotyped entry inhibition, cell reporter; activity change, negative = inhibition: at 37.8 µM (top of the series) unless noted
% is set by controls: 0 for no effect and ±100 for the full control effect; potency is the fitted concentration of half-maximal effect.

SMILES | Potency | activity change, negative = inhibition
COc1cc([C@@H](O)CO)ccc1OS(=O)(=O)O | inconclusive: 0.501 µM [inhibitor, full curve] | –
N=c1n(Cc2ccccc2)c2ccccc2n1CC(O)c1ccccc1 (centres undefined) | inconclusive: 9.2 µM [inhibitor, partial curve, poor fit] | –
CCC(CC)C(=O)NCCN1CCN(C(=O)C(CC)CC)CC1 | inactive | –
CCN(C(=O)CN1C(=O)c2ccc([N+](=O)[O-])cc2C1=O)C1CCS(=O)(=O)C1 (centres undefined) | inactive | –
C=CCOC(=O)C(C(C)=O)C(NC(=O)OC)c1ccc(F)cc1 (centres undefined) | inactive | –
COc1ccc2oc(=O)c(C(=O)NCCc3c(C)[nH]c4c(C)cccc34)cc2c1 | inconclusive: 5.01 µM [inhibitor, partial curve, poor fit] | –
C=CCNC(=O)N1C2=NC(C(=O)OC)=C(C(=O)OC)[C@@H]3N(Cc4ccccc4)c4ccccc4[C@]23C[C@H]1C(=O)OC | inactive | –
Cc1ccc(Sc2c(C=O)c3ccccc3n2C)cc1 | inconclusive: 35.5 µM [inhibitor, single point] | –
COc1ccc(CCNC2CCCCCC2)cc1 | inconclusive: 35.5 µM [inhibitor, single point] | –
CC(NC(=O)c1cnc2n(c1=O)CCS2)c1ccccc1 (centres undefined) | inactive | –
CCCCCCn1c(CN2CCCC(C)C2)nc2c1c(=O)n(C)c(=O)n2C (centres undefined) | inconclusive: 20.6 µM [inhibitor, single point] | –
CC(=O)N1c2c(cc(Br)cc2S(=O)(=O)N2CCN(c3ccccn3)CC2)CC1C (centres undefined) | inconclusive: 23.1 µM [inhibitor, partial curve, poor fit] | –
NC(=O)c1c(NC(=O)c2noc3c2CCCC3)sc2c1CCCC2 | – | inconclusive: 144% [activator] [at 46.1 µM]
CNc1c(NS(=O)(=O)c2ccc(C3CCCCC3)cc2)c(=O)oc2ccccc12 | inactive | –
COc1cccc(C2C([N+](=O)[O-])=C(N)Oc3c2c(=O)oc2ccccc32)c1 (centres undefined) | inconclusive: 6.51 µM [activator, single point] | –
Cc1cccc(/C=c2\s/c(=C\C(=O)C(C)(C)C)[nH]c2=O)c1 | inactive | –
Cc1cc(C)c(NC(=O)C2CCN(c3cnccn3)CC2)c(C)c1 | inactive | –
COC(=O)CC(c1ccc(C(C)C)cc1)n1cccc1 (centres undefined) | inconclusive: 2.82 µM [inhibitor, single point] | –
Cc1csc(SC(C)C(=O)NC2CCCCC2C)n1 (centres undefined) | inconclusive: 35.5 µM [inhibitor, single point] | –
O=C(c1cc(C2CC2)nn1-c1ccccc1)N1CCN(S(=O)(=O)c2c(F)cccc2F)CC1 | inconclusive: 6.31 µM [inhibitor, full curve] | –
O=C(N/N=C/c1ccc([N+](=O)[O-])o1)c1cc(-c2cccc(Br)c2)nc2ccccc12 | inconclusive: 15.8 µM [inhibitor, single point] | –
Cc1occc1C(=O)N1CCCC(CCC(=O)NCc2ccc(F)c(F)c2)C1 (centres undefined) | inconclusive: 0.708 µM [inhibitor, partial curve, poor fit] | –

Structural class: the entries above containing an aryl thioether with sulfur outside any ring.
SMILES | Potency | activity change, negative = inhibition
Cc1ccc(Sc2c(C=O)c3ccccc3n2C)cc1 | inconclusive: 35.5 µM [inhibitor, single point] | –
Cc1csc(SC(C)C(=O)NC2CCCCC2C)n1 (centres undefined) | inconclusive: 35.5 µM [inhibitor, single point] | –

(cont.)

SMILES | Potency | activity change, negative = inhibition
Cc1nn(C)cc1CN1CCCC(C(=O)c2ccc(-c3ccccc3)cc2)C1 (centres undefined) | inconclusive: 10 µM [inhibitor, partial curve, poor fit] | –
COc1ccc(CC(=O)Nc2cccc(-c3nnc(-c4ccc(C)cc4)o3)c2)cc1OC | active: 9.2 µM | –
COc1ccc(S(=O)(=O)NCCc2ccccc2)cc1OC | inconclusive: 15.8 µM [activator, single point] | –
COc1cccc(N(C(=O)CCl)C(C(=O)NCCc2ccccc2)c2cccs2)c1 (centres undefined) | inconclusive: 14.1 µM [inhibitor, partial curve, poor fit] | –
Cc1ccc(SCCC(=O)Nc2nccs2)cc1 | inactive | –
CCOC(=O)C1=C(c2ccccc2)N=c2s/c(=C\c3ccco3)c(=O)n2C1c1cccs1 (centres undefined) | inconclusive: 13 µM [inhibitor, partial curve] | –
O=C(Cc1ccccc1)Nc1ccc(NC(=O)c2cccc(Cl)c2)cc1 | inconclusive: 31.6 µM [inhibitor, single point] | –
CCN(Cc1ccccc1)C(c1ccccn1)c1nnnn1C(C)(C)CC (centres undefined) | inconclusive: 16.4 µM [inhibitor, partial curve, poor fit] | –
CN1CCN(Cc2nc3c(c(=O)n(C)c(=O)n3C)n2Cc2cccc3ccccc23)CC1 | inconclusive: 23.1 µM [inhibitor, single point] | –
O=c1c(C(c2ccc(O)cc2)c2c(O)nc3n(c2=O)CCCS3)c(O)nc2n1CCCS2 | inactive | –
O=S(=O)(/N=C(/Nc1ccccc1)C(F)(F)F)c1ccccc1 | inconclusive: 8.91 µM [activator, single point] | –
Cc1cc(C)cc(NC(=O)Nc2ccc(-n3ccc(C(F)(F)F)n3)cc2)c1 | inconclusive: 1.12 µM [inhibitor, full curve, poor fit] | –
N#Cc1cnn2cc(-c3ncc(C(F)(F)F)cc3Cl)cnc12 | inactive | –
Nc1cc2c(cc1Br)-c1ccccc1C2=NO | inconclusive: 2 µM [activator, partial curve, poor fit] | –
Oc1ccccc1-c1csc(-c2ccccc2)n1 | inconclusive: 11.2 µM [inhibitor, partial curve, poor fit] | –
CCn1c(=O)c2cc(C(=O)NCCc3cccc(C)c3)sc2c2ccccc21 | inactive | –
COc1ccc(-n2c(SCc3nc(-c4ccc(C)cc4)no3)nnc2-c2ccncc2)cc1 | inconclusive: 6.31 µM [inhibitor, full curve] | –
CC(=O)Nc1ccc(C(=O)NNS(=O)(=O)c2ccc(C)cc2)cc1 | inactive | –
Cc1c(Cl)c([N+](=O)[O-])nn1CCCC(=O)Nc1cccc(Cl)c1 | inconclusive: 0.631 µM [activator, partial curve, poor fit] | –
Cc1ccc(Sc2c(O)c3ccccc3n(C)c2=O)cc1 | inconclusive: 6.51 µM [inhibitor, single point] | –
O=C(N/N=C/c1cccs1)c1cccnc1 | inactive | –
Cc1ccc(OCc2nnc(NC(=O)c3ccco3)s2)cc1 | inactive | –

From PubChem BioAssay AID540276 (National Center for Advancing Translational Sciences (NCATS), 2011)
